{"source": "paper doi:10.1101/335273", "target": "HA-tagged HCV NS5A, JFH1, in sgJFH1-NS5A.HA replicon cells (Hepatitis C virus genotype 2a (JFH1)) (UniProt Q99IB8)", "test": "co-IP", "note": "No constants are given. Whether binding was seen depends on the method and setting. Binding seen in cells or lysates may run through a third protein. Some entries that bind do so weakly or less than the wild type.", "data": [{"substance": "HCV non-structural protein 3 (NS3), JFH1, in sgJFH1-NS5A.HA replicon cells (from UniProt Q99IB8 1031-1661)", "values": [{"measurement": "binding", "result": "binds"}]}]}
